{
  "sequences": {"note": "The chains behind the UniProt entries cited, without tags or fusion partners. Where a name states a change or a piece, a line headed by the entry shows the natural chain unless it says otherwise.", "UniProt P49841": "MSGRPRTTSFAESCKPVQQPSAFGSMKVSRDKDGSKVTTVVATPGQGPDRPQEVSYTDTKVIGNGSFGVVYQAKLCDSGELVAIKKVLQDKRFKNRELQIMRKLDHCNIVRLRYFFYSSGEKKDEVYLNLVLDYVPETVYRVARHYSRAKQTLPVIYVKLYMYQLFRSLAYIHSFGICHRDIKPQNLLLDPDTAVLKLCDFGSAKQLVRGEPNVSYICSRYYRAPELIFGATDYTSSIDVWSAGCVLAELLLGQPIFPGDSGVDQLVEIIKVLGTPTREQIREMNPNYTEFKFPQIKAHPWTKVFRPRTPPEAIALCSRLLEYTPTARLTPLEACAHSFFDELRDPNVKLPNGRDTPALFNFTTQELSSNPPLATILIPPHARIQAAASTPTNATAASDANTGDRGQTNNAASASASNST", "UniProt P05556": "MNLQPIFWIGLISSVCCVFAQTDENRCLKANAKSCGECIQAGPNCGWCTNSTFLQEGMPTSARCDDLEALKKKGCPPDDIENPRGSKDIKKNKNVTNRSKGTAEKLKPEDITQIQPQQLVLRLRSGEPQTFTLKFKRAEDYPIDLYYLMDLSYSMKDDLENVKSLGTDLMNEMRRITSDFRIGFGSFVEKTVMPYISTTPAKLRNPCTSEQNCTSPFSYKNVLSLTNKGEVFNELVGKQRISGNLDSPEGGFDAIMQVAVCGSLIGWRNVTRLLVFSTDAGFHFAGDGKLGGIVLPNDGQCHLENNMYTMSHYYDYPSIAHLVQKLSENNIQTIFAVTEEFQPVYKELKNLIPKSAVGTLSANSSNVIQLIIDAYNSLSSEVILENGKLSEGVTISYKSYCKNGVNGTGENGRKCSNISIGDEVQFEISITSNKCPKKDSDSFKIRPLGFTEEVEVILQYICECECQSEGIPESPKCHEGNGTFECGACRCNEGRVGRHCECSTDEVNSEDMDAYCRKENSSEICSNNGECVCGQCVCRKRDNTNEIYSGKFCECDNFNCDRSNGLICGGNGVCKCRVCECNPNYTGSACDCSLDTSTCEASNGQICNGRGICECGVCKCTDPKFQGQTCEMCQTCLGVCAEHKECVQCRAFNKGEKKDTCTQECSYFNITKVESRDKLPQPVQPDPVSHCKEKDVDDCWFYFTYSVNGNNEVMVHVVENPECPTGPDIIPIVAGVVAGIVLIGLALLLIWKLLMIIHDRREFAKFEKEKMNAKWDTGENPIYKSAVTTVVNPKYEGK", "UniProt P35579": "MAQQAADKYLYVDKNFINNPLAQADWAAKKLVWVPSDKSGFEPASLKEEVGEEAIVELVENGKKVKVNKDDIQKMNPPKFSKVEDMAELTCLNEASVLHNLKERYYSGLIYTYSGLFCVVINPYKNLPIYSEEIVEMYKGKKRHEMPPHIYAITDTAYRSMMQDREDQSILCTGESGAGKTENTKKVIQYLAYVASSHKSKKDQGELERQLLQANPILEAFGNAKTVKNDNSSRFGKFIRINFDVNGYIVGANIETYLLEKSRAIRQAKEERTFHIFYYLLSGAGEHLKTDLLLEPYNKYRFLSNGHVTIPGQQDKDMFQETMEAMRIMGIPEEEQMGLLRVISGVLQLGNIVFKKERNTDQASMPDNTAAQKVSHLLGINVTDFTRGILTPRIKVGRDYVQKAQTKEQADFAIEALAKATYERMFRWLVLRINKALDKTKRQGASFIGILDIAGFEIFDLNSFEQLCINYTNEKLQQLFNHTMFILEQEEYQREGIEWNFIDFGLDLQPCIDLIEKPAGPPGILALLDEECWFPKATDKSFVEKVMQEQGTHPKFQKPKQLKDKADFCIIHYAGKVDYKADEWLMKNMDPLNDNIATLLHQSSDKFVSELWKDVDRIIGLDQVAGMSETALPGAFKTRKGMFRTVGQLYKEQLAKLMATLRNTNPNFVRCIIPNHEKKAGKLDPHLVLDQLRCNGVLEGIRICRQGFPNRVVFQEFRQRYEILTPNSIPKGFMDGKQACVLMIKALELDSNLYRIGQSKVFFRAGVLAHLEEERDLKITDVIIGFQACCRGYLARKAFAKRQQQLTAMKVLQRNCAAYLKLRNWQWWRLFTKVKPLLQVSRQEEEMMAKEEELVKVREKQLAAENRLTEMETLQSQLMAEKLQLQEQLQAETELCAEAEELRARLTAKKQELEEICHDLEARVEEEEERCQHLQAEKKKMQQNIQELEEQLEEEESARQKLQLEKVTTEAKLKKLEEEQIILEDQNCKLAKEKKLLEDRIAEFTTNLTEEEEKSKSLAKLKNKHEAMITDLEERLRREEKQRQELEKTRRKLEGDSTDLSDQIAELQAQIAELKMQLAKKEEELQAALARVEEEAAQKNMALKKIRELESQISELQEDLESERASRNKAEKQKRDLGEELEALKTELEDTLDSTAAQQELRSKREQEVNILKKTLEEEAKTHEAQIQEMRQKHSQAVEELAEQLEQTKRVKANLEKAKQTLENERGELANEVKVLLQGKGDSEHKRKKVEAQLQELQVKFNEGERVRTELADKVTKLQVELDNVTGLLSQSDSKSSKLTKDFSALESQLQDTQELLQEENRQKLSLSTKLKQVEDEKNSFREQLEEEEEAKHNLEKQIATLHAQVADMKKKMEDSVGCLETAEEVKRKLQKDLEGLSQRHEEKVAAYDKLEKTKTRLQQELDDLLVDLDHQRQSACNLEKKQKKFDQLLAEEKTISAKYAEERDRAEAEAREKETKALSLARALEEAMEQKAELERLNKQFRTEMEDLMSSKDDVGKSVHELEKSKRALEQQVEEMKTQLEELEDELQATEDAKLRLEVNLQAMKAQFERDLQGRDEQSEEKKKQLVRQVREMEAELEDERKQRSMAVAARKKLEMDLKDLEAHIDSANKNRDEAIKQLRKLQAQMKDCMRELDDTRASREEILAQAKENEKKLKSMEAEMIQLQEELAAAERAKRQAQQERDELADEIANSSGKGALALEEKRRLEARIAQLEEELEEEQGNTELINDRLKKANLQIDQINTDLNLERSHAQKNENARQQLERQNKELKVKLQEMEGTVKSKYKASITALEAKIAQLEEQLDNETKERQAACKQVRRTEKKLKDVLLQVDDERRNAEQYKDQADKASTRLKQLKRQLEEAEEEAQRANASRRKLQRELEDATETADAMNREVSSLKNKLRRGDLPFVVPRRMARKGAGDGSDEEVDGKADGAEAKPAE"},
  "source": "paper PMC10701957",
  "key": {"[1]": {"molecular_target": "alpha-actinin 1 (ACTN1) (human (endogenous in SCC-1cisR)) (UniProt P12814)", "test": "co-IP; SCC-1cisR cells (a further panel in Supplementary Fig. 7B); RIPA lysate, primary antibody overnight at 4 °C, magnetic beads 6 h at 4 °C, western blot"}, "[2]": {"molecular_target": "exogenous ACTN1 (human) (UniProt P12814)", "test": "co-IP; exogenous co-IP in HNSCC cells; RIPA lysate, primary antibody overnight at 4 °C, magnetic beads, western blot"}, "[3]": {"molecular_target": "calponin-homology 1 domain of ACTN1 (human) (UniProt P12814)", "test": "co-IP; domain constructs: MYH9 domains with ACTN1 in SCC-1cisR cells, ACTN1 domains with MYH9 in SCC-1 cells; RIPA lysate, magnetic beads, western blot"}, "[4]": {"molecular_target": "alpha-actinin 1 (ACTN1) (human (endogenous in SCC-1cisR)) (UniProt P12814)", "test": "co-IP; endogenous co-IP in HNSCC cells; RIPA lysate, primary antibody overnight at 4 °C, magnetic beads, western blot"}, "[5]": {"molecular_target": "GSK-3β (human (endogenous in HNSCC cell lines)) (UniProt P49841)", "test": "co-IP; MYH9 with GSK-3β in HNSCC cells with ACTN1 overexpression or ACTN1 depletion; RIPA lysate, magnetic beads, western blot"}},
  "note": "These are yes or no findings as the source states them, for the method shown. In cells and extracts the contact can be indirect. Some entries that bind do so weakly or less than the wild type.",
  "data": [
    {"substance": "integrin β1 (from UniProt P05556 21-798) (receptor)", "values": [
      {"measurement": "binding", "setting": "[1]", "result": "binds"}
    ]},
    {"substance": "exogenous MYH9 (from UniProt P35579 1-1960)", "values": [
      {"measurement": "binding", "setting": "[2]", "result": "binds"},
      {"measurement": "binding", "setting": "[3]", "result": "binds"}
    ]},
    {"substance": "myosin heavy chain 9 (MYH9) (from UniProt P35579 1-1960)", "values": [
      {"measurement": "binding", "setting": "[4]", "result": "binds"},
      {"measurement": "binding", "setting": "[5]", "result": "binds"}
    ]}
  ]
}
